# Measured values: PubChem BioAssay AID588497 (NMMLSC, 2011)
# Among all 360,000 compounds or so, about 780 (0.22%) were called active. The inconclusive results got no clear call from the source; some entries with a clear call stand among them for comparison. Rule as the data show it: active = inhibition above about 35% (passing the limit was not always enough); inconclusive = no clear call, values can overlap the other calls.
# Tested on: Botulinum neurotoxin type F light chain protease (Clostridium botulinum)
# Assay: BoNT/F light chain protease inhibitors, primary screen, biochemical, flow cytometry, MLPCN library (AID 588497); also: plate controls were buffer without enzyme for full effect and enzyme alone for no effect
# Settings: Multiplex microsphere protease cleavage assay, at 10 µM, hits give high values
row,Compound,inhibition
1,CCOc1ccc(C2=CSC3=NCCN23)cc1Cl,inconclusive: -26%
2,Nc1cc(Cl)ccc1C(=O)OCC(=O)N1CCOCC1,inactive: -0.5%
3,Cc1nc(-c2cc(-c3nc(-c4ccc(C(F)(F)F)cc4)no3)no2)cs1,inconclusive: -51.5%
4,Cc1ccc(NC(=O)c2cc(-c3ccccc3)n[nH]2)cc1,inconclusive: 26.7%
5,CCNc1nc(NCC)n2c(SCC(=O)Nc3c(C)cccc3C)nnc2n1,inconclusive: 15%
6,CCOC(=O)c1c(NC(=O)C2CCN(S(=O)(=O)c3cccs3)CC2)sc(C)c1C,inconclusive: -39.2%
7,COc1ccc(CSc2nc(C)[nH]c2[N+](=O)[O-])cc1[N+](=O)[O-],inconclusive: 27.3%
8,Cc1cc(C(F)F)n2ncc(C(=O)N3CCCCC3)c2n1,inconclusive: 11.1%
9,CC(=O)c1cc(CC=C(C)C)c(O)cc1O,inconclusive: -27%
10,COc1cccc(NC(C)(C)c2nnnn2-c2c(C)cccc2C)c1,inconclusive: -47.4%
11,CCC1(C)NC(=O)N(CC(=O)N2CCC(Cc3ccccc3)CC2)C1=O (stereo unspecified),inconclusive: -6.2%
12,CN(C)Cc1cc(CCNC(=O)c2ccc(Cl)cc2)ccc1O,inconclusive: -11.1%
13,Cn1c(=O)c2c(ncn2CC(=O)Nc2nc3ccc(F)cc3s2)n(C)c1=O,inconclusive: 1.8%
14,COc1ccc(N(C=O)C(=S)SC)cc1,inconclusive: -43.7%
15,O=C(CSc1cccc2cccnc12)N/N=C/c1ccc(F)cc1,inconclusive: -158%
16,COc1ccc(-c2nnc(NC(=O)c3ccc(S(=O)(=O)N4CCCc5ccccc54)cc3)o2)cc1,inactive: 11.6%
17,O=S(=O)(NCc1cccnc1)c1cc(Cl)ccc1Cl,active: 37.1%
18,O=Cc1c(NCc2ccccc2F)c2ccccc2[nH]c1=O,inconclusive: -21.8%
19,COc1ccc(-c2cc(-c3ccc(Cl)cc3)n[nH]2)c(O)c1,inconclusive: -43.1%
20,Cc1ccc(O)c(-c2cc3ccccc3[nH]2)c1,inactive: -3.5%
21,O=C(CNC(=O)c1ccc(Br)o1)Nc1ccccc1,inconclusive: -24.9%

row,Compound,inhibition
1,COc1ccc(C(=O)COC(=O)CSCc2c(C)noc2C)cc1OC,inactive: 1.3%
2,Cc1nc(NCc2ccccc2)c2cc[nH]c2n1,inconclusive: -33.6%
3,O=C1CCCN1CN(C(=O)c1ccccc1)c1ccccc1,inactive: -1.3%
4,COc1cccc(C(C(=O)NC2CCCC2)N(C(=O)CNC(=O)c2ccco2)c2cccnc2)c1 (stereo unspecified),inactive: 6.7%
5,CC(=O)c1c(C)n(CCc2ccc(Cl)cc2)c2ccc(O)cc12,inconclusive: 5.4%
6,CCOC(=O)c1cnc2c(CC)cccc2c1NCCCN1CCOCC1,inconclusive: 29.9%
7,CCOc1ccccc1NC(=S)N1CCN(c2cccc(OC)c2)CC1,inconclusive: 22%
8,Nc1c(Cl)cc(N=Nc2ccccc2)cc1Cl,inactive: -0.7%
9,CCOC(=O)c1sc(NC(=O)CN2C(=O)NC3(CC(C)CC(C)(C)C3)C2=O)cc1C (stereo unspecified),inconclusive: -12%
10,CN1CCN(c2ccc(Nc3ccnc4cc(Cl)ccc34)cc2)CC1,inconclusive: -13.5%
11,O=C(Nc1ccccc1)c1ncoc1-c1ccc(Cl)cc1,inconclusive: -22.4%
12,COc1ccc(S(=O)(=O)NN=C2CCCC2)cc1,inactive: 0.1%
13,O=C(CC1C(=O)OCN1C(=O)OCc1ccccc1)OCC(=O)c1ccccc1 (stereo unspecified),inconclusive: -4.7%
14,O=C(c1ccccn1)N1CCN(c2ccc(C(F)(F)F)cn2)CC1,inconclusive: 49.3%
15,CC(C)CNc1ncnc2c1ncn2[C@H]1CN(CCc2ccccc2)C[C@@H](CO)O1,inactive: 4.8%
16,Cc1cccc(NC(=O)c2nc[nH]c2C(=O)N2CCN(C(=O)OC(C)(C)C)CC2)c1,inactive: -9.8%
17,Cn1ncc(Br)c1C(=O)N1CCCCCC1,inactive: 2.2%
18,O=C1NC[C@@H](CCCCN2CCN(CCC3CCCCC3)C(=O)C2=O)N(CCC2CCCCC2)C1=O,inactive: -3%
19,c1ccc(CCCN2CCOCC2)cc1,inconclusive: 0.8%
20,Cc1cc(C)n(C(=O)Cn2nc(C)c(Br)c2C)n1,inconclusive: 22.1%
21,CC(=O)c1ccc(NC(=S)N2CCC(Cc3ccccc3)CC2)cc1,inconclusive: -86.6%

row,Compound,inhibition
1,CN1CCCC(C(O)(c2ccccc2)c2ccccc2)C1 (stereo unspecified),inconclusive: -55.8%
2,NC(=O)CNC(=O)c1cccc(Cl)c1,inconclusive: 17.3%
3,Cc1nnc(Nc2ccc(F)cc2)c2ccccc12,inconclusive: 3.4%
4,Cc1ccc2c(c1)C(=O)CC(c1ccccc1)S2 (stereo unspecified),inactive: -6.5%
5,O=C(NCCN1CCCCC1)Nc1cccc(Cl)c1Cl,inconclusive: -0.8%
6,Cc1ccc(S(=O)(=O)CC(=O)c2ccc3c(c2)OCCO3)cc1,inconclusive: -22.4%
7,CC(C)Sc1ccccc1C(=O)Nc1ccc2c(c1)n(C)c(=O)n2C,inconclusive: 17.3%
8,CCC(=O)c1cn(CCOc2ccccc2OC)c2ccccc12,inconclusive: 3.6%
9,Cc1ccc(-n2c(SCC(=O)NCc3ccco3)nc3c(sc4ccccc43)c2=O)cc1,inactive: 1.8%
10,O=[N+]([O-])c1c(NCCO)cc(N2CCCCCC2)c2nonc12,inconclusive: 26.7%
11,CC(C)C(NC(=O)/C(=C\c1ccco1)NC(=O)c1ccco1)C(=O)O (stereo unspecified),inconclusive: -34.3%
12,Fc1ccc(CSc2ncnc3sc4c(c23)CCCC4)cc1,inactive: 1%
13,CCOc1ccc(S(=O)(=O)n2nc(C)cc2C)cc1,inconclusive: -18.3%
14,Cc1ccc(N=Cc2c(O)c3ccccc3n(C)c2=O)cc1,inconclusive: -3.6%
15,CCN(CC)C(=O)CN1C(=O)C2(NC(=O)c3ccccc3N2)c2ccccc21 (stereo unspecified),inactive: -0.4%
16,N#C/C(C(=O)N1CCCCC1)=C1\Nc2ccccc2S1,inactive: -28.5%
17,Cc1ccccc1N1CC(=O)N(c2ccccc2C)CC1=O,inactive: -9.9%
18,OCCNc1nc(Nc2ccccc2)nc2ccccc12,inactive: -2.1%
19,FC(F)(F)Oc1ccc(-c2cn3cccnc3n2)cc1,inconclusive: -48.2%

# Compounds above that contain a nitro group on carbon (2):
row,Compound,inhibition
7,COc1ccc(CSc2nc(C)[nH]c2[N+](=O)[O-])cc1[N+](=O)[O-],inconclusive: 27.3%
10,O=[N+]([O-])c1c(NCCO)cc(N2CCCCCC2)c2nonc12,inconclusive: 26.7%
